Measurements taken from patent US7507792B2, “MDA-7 proteins and methods of use thereof” (The Trustees of Columbia University In The City of New York, priority 1993, dated 2009).
Some entries share one result that the patent states for a list of compounds.

Test system: mda-6 (WAF1/CIP1/SDI1)
Assay: Induction of mda-6 (WAF1/CIP1/SDI1) expression in HL-60 cells (Northern blotting, RT-PCR)
Type: cell-based, human
Details: TPA 3 nM, Vit D3 400 nM, RA 1 μM, DMSO 1%
Method: HL-60 cells were originally provided by Dr. R. C. Gallo (National Cancer Institute, Bethesda, Md.) (Collins et al., 1978; Huberman & Callaham, 1979). HL-60 cells designated HL-525 were derived by cloning HL-60 cells after subculturing 102 times in the presence of increasing concentrations (up to 3 μM) of TPA at 5- to 8-day intervals (Homma et al., 1986; Mitchell et al., 1986). […] Prior to the experiments described in this study, the HL-525 cells were subcultured more than 20 times in the absence of TPA. Cells were grown in 100-mm tissue culture dishes in RPMI 1640 medium supplemented with 20% fetal bovine serum, penicillin (100 units/ml) and streptomycin (100 μg/ml) (Grand Island Biological Co., NY) at 37° C. in an atmosphere of 5% CO2 in air in a humidified incubator. The 1,25-(OH)2D3(Vit D3) and TPA were dissolved in a final concentration of 0.01% DMSO, and all-trans retinoic acid (RA) was dissolved in 0.1% DMSO in culture medium. […]
RNA was purified by centrifugation through a CsC1 cushion as described by Chirgwin et al. (1979). […] Following hybridization, the filters were washed and exposed for autoradiography (Reddy et al., 1991; Su et al., 1991; Jiang et al., 1992). mda-6 and GAPDH gene expression were also determined by reverse transcription-polymerase chain reaction (RT-PCR) as described (Adollahi et al. 1991; Lin et al., 1994). […]

Compound: C[S+](C)[O-] [DMSO, dimethyl sulfoxide]
- time of treatment at which mda-6 expression is induced: ≤ 3 h
